Laboratory results published in paper PMC13534636.
Construct, isoform or probe ends are uncertain for at least one entry.

System: ETV5
Assay: EMSA
Settings: ETV5 60-240 nM, probe 5 nM, diffuse high-MW smear; 20 mM HEPES-KOH pH 7.5, 5 mM MgCl2, 50 mM KCl, 10 mM DTT, 10% glycerol; 5 nM probe, 25 min at 25 C; 6% PAGE in 0.5x TBE; commercial protein; label: 5'-FAM on sense strand

## TTTTAACGGCGTGGTTTGAATGTTGCACTGGGTCCACCTGCCTCTGTCTCCGGCTGCGGGGACGTTCGGA (double strand) [MRPL30 probe (WT)]
  binding result: binds
